PubChem BioAssay AID504467 (National Center for Advancing Translational Sciences (NCATS), 2011)
About 7,700 (2.3%) of roughly 330,000 compounds were called active. Inconclusive results, whose numbers are uncertain, are shown with a selection of clear calls. Calls come from the whole dose curve; as a rule, active = well fitted inhibition curve with a large enough effect; inconclusive = small, poorly fitted or top-dose-only effect, or effect the other way; inactive = flat fitted curve, though single readings scatter. A potency beside an inconclusive call is a rough fit, not a confirmed value.

Test: qHTS screen for small molecules that inhibit ELG1-dependent DNA repair in human embryonic kidney (HEK293T) cells expressing luciferase-tagged ELG1; note: nearly all actives have a fitted effect of over 55% in size
Details: HEK293T ELG1-luciferase reporter, luminescence, 16 h, DNA damage induced by 5-fluorouridine; activity change, negative = inhibition: at 46.1 µM (top of the series)
How it was run: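 In this reporter screen, reduction of luminescence relative to DMSO vehicle indicated activity. Compounds and 5-fluorouridine were added together to 2,000 cells per well, incubated for 16 hr at 37 °C, then developed with ONE-Glo.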
% is set by controls: 0 for no effect and ±100 for the full control effect; potency is the fitted concentration of half-maximal effect.

| Structure (SMILES) | activity change, negative = inhibition | Potency |
| --- | --- | --- |
| COc1ccccc1NS(=O)(=O)c1ccc(O)c(C(=O)OCC(=O)c2ccc(Cl)cc2Cl)c1 | inactive: -12.4% | – |
| CC(C)N(C(=O)[C@H]1C[C@H](CC(=O)NCCC2=CCCCC2)C(=O)N2CCc3c([nH]c4cc(-c5ccco5)ccc34)[C@]12C)C(C)C | inactive: -11.7% | – |
| Cc1ccc(CN(C(=O)COc2cccc(C)c2C)C2CCS(=O)(=O)C2)o1 (stereo unspecified) | inactive: 0.114% | – |
| O=C(CSc1ncn[nH]1)c1ccc2c(c1)OCO2 | – | inconclusive: 12.6 µM [activator, partial curve, poor fit] |
| O=C(Nc1ccc(O)c(-c2nc3ccccc3s2)c1)C1=COCCO1 | inactive: 6.64% | – |
| COc1ccc(C2c3[nH]c4ccccc4c3CCN2Cc2cccn2-c2ncccn2)cc1C (stereo unspecified) | – | active: 20.6 µM |
| COc1ccc(C2NC(c3ccc(OC)cc3)C([N+](=O)[O-])C(C)(C)C2[N+](=O)[O-])cc1 (stereo unspecified) | – | inconclusive: 23.1 µM [inhibitor, partial curve] |
| COC(=O)c1ccc2nc(Nc3nc4ccc(F)cc4s3)sc2c1 | – | inconclusive: 0.58 µM [activator, full curve] |
| COc1ccc(N2CCCn3c2nc2c3c(=O)n(Cc3ccc(F)cc3)c(=O)n2C)c(OC)c1 | inactive: 1.32% | – |
| Cc1noc(C)c1S(=O)(=O)N(CC(=O)NC1CCCC1)c1ccc(C(C)C)cc1 | – | inconclusive: 14.6 µM [activator, single point] |
| CC(C)Cn1nc(NC(=O)c2ccco2)c2cc3ccccc3nc21 | – | inconclusive: 29.1 µM [inhibitor, single point] |
| COc1ccc(NC(=O)c2ccc(OC(F)F)cc2)cc1Cl | – | inconclusive: 3.26 µM [activator, full curve] |
| CC(C)c1ccc(NC(=O)C(c2ccccc2)N2CC(=O)Nc3ccccc32)cc1 (stereo unspecified) | – | inconclusive: 14.6 µM [activator, single point] |
| C[C@@H]1C=CC(=O)O[C@@H]1c1ccc(Cl)cc1 | – | inconclusive: 32.6 µM [inhibitor, single point] |
| O=[N+]([O-])c1cccc(NNS(=O)(=O)c2ccccc2F)c1 | – | inconclusive: 6.51 µM [inhibitor, single point] |
| CC(NCC(=O)Nc1cc(S(=O)(=O)N2CCOCC2)ccc1Cl)c1ccc(Cl)cc1Cl (stereo unspecified) | – | inconclusive: 20.6 µM [inhibitor, single point] |
| c1ccc(Cn2nnc3c(Nc4ccc5c(c4)OCO5)nc(C4CC4)nc32)cc1 | inactive: -9.4% | – |
| S=c1[nH]c2cc(-c3ccccc3)ccc2o1 | – | inconclusive: 13 µM [activator, partial curve] |

| Structure (SMILES) | activity change, negative = inhibition | Potency |
| --- | --- | --- |
| Cc1ccccc1Nc1nnc(SCC(=O)c2c(N)n(C3CC3)c(=O)[nH]c2=O)s1 | – | inconclusive: 32.6 µM [inhibitor, single point] |
| O=C(Nc1ccncc1)Nc1ccc(F)cc1F | inactive: 17% | – |
| Cc1c(C(=O)N2CCC[C@H]2C(N)=O)oc2c(F)cccc12 | – | inconclusive: 25.9 µM [activator, single point] |
| O=C(CCC(=O)N1CCN(S(=O)(=O)c2ccc3ccccc3c2)CC1)Nc1cc(Cl)cc(Cl)c1 | – | inconclusive: 18.3 µM [inhibitor, single point] |
| O=C1C=C(NC2=CC3OC(c4ccccc4)OCC3OC2=O)CCC1 (stereo unspecified) | – | active: 13 µM |
| CN(c1ccccc1)S(=O)(=O)c1cccc(NC(=O)CCNC(=O)c2ccccc2)c1 | – | inconclusive: 16.4 µM [inhibitor, single point] |
| COc1ccccc1NC(=O)NCCCN1CCN(c2cccc(Cl)c2)CC1 | inactive: 2.15% | – |
| COCC(=O)N(c1ccccc1)C(C)C(=O)OC (stereo unspecified) | inactive: 6.89% | – |
| CC(C)(C)c1ccc(NC(=O)c2cc[n+]([O-])cc2)cc1 | – | inconclusive: 23.1 µM [activator, partial curve, poor fit] |
| CC1CC1C(=O)Nc1nc(-c2ccccc2)cs1 (stereo unspecified) | – | inconclusive: 0.0461 µM [activator, full curve] |
| Cc1oc(-c2ccccc2Cl)nc1CS(=O)CC(=O)N1CCN(c2ccccc2)CC1 (stereo unspecified) | inactive: 0.495% | – |
| N#C/C(=C/c1cn(-c2ccccc2)nc1-c1cccc(S(=O)(=O)N2CCCC2)c1)C(=O)NCc1ccco1 | – | inconclusive: 8.2 µM [inhibitor, partial curve] |
| c1ccc2sc(SCSc3nc4ccccc4s3)nc2c1 | – | inconclusive: 6.51 µM [inhibitor, single point] |
| Cc1c(C(=O)Nc2ccc(N3CCOCC3)cc2)oc2ccccc12 | – | inconclusive: 7.31 µM [inhibitor, single point] |
| O=C(COc1ccccc1F)Nc1ccc(S(=O)(=O)Nc2nccs2)cc1 | inactive: 2.63% | – |
| CCOC(=O)c1sc(NC(=O)c2cc3c(s2)CCC(C)C3)nc1C (stereo unspecified) | – | inconclusive: 9.2 µM [activator, partial curve] |
| Brc1ccc(CSc2ccc(-c3ccco3)nn2)cc1 | – | inconclusive: 23.1 µM [activator, single point] |
| Cc1onc(-c2c(F)cccc2Cl)c1C(=O)Nc1sc2c(c1C#N)CCC(C(C)(C)C)C2 (stereo unspecified) | – | inconclusive: 16.4 µM [inhibitor, single point] |

One compound at a time, as listed above.
O=C(Nc1ccncc1)Nc1ccc(F)cc1F reads activity change, negative = inhibition: inactive: 17%
COCC(=O)N(c1ccccc1)C(C)C(=O)OC (stereo unspecified) reads activity change, negative = inhibition: inactive: 6.89%
COc1ccccc1NC(=O)NCCCN1CCN(c2cccc(Cl)c2)CC1 reads activity change, negative = inhibition: inactive: 2.15%
